Reference: US20240174740A1
These are yes or no findings as the source states them, for the method shown. Some binding calls cover weakened binding; strength is not graded here.

Chains of the proteins cited; added tags and fusions are not shown. Residues count along the entry.
UniProt P23467, residues 23-1534: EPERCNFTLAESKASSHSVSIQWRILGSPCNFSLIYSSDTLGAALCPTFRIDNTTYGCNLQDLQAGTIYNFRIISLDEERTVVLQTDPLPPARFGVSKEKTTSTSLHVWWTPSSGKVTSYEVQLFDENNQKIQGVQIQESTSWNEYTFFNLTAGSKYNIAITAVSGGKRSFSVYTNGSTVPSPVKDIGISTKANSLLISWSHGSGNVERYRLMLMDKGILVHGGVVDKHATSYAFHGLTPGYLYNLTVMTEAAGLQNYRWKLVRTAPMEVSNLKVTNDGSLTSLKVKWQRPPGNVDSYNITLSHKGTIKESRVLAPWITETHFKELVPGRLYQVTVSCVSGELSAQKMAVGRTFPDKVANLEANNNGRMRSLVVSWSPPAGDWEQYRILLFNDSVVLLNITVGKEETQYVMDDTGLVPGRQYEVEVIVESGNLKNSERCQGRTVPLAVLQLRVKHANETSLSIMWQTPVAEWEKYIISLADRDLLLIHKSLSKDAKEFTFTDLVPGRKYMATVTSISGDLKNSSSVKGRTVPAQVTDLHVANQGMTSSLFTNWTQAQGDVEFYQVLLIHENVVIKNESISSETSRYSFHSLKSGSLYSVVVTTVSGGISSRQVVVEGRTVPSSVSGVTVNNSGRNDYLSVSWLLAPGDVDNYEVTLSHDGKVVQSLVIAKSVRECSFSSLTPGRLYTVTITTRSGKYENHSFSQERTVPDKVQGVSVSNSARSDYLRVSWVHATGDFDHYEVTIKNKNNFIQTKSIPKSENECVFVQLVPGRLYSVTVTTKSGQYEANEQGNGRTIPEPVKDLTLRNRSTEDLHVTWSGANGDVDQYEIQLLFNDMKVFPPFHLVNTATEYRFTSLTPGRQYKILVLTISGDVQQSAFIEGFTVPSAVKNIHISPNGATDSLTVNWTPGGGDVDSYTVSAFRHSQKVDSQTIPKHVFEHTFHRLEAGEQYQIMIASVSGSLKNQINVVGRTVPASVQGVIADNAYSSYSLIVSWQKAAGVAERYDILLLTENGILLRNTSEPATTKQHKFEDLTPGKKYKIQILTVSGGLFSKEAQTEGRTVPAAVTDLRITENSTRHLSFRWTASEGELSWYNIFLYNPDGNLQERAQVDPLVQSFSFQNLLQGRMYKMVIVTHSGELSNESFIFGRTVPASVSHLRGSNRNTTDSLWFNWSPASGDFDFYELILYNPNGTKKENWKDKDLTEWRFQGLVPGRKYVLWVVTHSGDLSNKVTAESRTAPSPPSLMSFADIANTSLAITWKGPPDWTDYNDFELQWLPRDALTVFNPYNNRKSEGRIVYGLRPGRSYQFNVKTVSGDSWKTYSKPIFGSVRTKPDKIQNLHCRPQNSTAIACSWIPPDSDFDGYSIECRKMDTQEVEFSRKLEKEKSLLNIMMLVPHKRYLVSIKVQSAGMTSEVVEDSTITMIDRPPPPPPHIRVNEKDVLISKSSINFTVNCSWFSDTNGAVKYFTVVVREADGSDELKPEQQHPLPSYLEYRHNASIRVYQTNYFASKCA

Target: HPTP-β (VE-PTP) (human) (UniProt P23467)
Assay: ELISA on HPTP-β, absorbance against antibody concentration 0.05-1 ug/mL (control curve)

B1: HC2:LC1 (antibody, human IgG4 S228P, kappa, V domains shown)
VH: EVQLVESGGGLVQPGGSLRLSCAASGFTFNANAMNWVRQAPGKGLEWVGRIRTKSNNYATYYAGSVKDRFTISRDDSKNSLYLQMNSLKTEDTAVYYCVRDYYGSSAWITYWGQGTLVTVSS
VL: DVVMTQSPSFLSASVGDRVTITCKASQHVGTAVAWYQQRPGKAPKLLIYWASTRHTGVPSRFSGSGSGTEFTLTISSLQPEDFATYFCQQYSSYPFTFGGGTKLEIKR
- binding: binds
